## Assay results

From PubChem BioAssay record AID1080 (Emory University Molecular Libraries Screening Center, 2008).

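A cell line overexpressing EP4 prostanoid receptors, stimulated with a low (about EC15) PGE2 dose; cAMP read by HTRF FRET after a short room-temperature incubation. Compounds were tested at 20 µM final. A low (about EC15) PGE2 dose was present. Percent cAMP induction as a fraction of the 1 µM PGE2 response, averaged over three replicates; a higher value means more cAMP.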

Values are in %. Common to all entries: measured here: EP4 receptor counter-screen. This is a side read-out of the assay, for part of the compounds, not drawn at random.

compound | condition | cAMP induction (%)
COc1ccc(N(Cc2ccccc2)S(=O)(=O)c2ccc(C)cc2)cc1 | percent of 1 uM PGE2 response; plus low (about EC15) PGE2 agonist | 1.52
Cc1c(NC(=S)NC(=O)c2ccc(-c3ccc(Cl)cc3)o2)cccc1C(=O)O | percent of 1 uM PGE2 response; plus low (about EC15) PGE2 agonist | -8.18
O=C1N2c3ccccc3CCc3cccc(c32)C1(O)C(F)(F)F (stereo not given) | percent of 1 uM PGE2 response; plus low (about EC15) PGE2 agonist | 4.903
Cc1ccc(-c2cc(C(F)(F)F)nn2-c2ccc(S(N)(=O)=O)cc2)cc1 | percent of 1 uM PGE2 response; plus low (about EC15) PGE2 agonist | 8.89
COc1ccc(S(=O)(=O)N(Cc2ccccc2)Cc2nc(-c3ccccc3)no2)cc1 | percent of 1 uM PGE2 response; plus low (about EC15) PGE2 agonist | -0.7433
c1ccc(-c2nn3c(-c4ccccc4)nnc3s2)cc1 | percent of 1 uM PGE2 response; plus low (about EC15) PGE2 agonist | -2.203
CCOC(=O)c1oc2ccccc2c1NC(=O)c1cccc(OC)c1OC | percent of 1 uM PGE2 response; plus low (about EC15) PGE2 agonist | -11.54
CC(=O)O[C@H]1C[C@@H](OC(C)=O)C(C)(C)C2C[C@@H](OC(C)=O)[C@]3(C)C([C@H](OC(C)=O)C[C@@]4(C)[C@H](c5ccoc5)OC(=O)[C@H]5O[C@]543)[C@]21C (stereo not given in full) | percent of 1 uM PGE2 response; plus low (about EC15) PGE2 agonist | 2.373
C[C@]12CCC(=O)C=C1CCC1C2CC[C@@]2(C)C1CC[C@@H]2O (stereo not given in full) | - | -6.17
CCOC(=O)c1sc2nccc(N(C)C)c2c1N=CNOCc1ccccc1 | percent of 1 uM PGE2 response; plus low (about EC15) PGE2 agonist | -7.91
CCc1ccc(Nc2oc(C)cc(=O)c2C(C)=O)cc1 | percent of 1 uM PGE2 response; plus low (about EC15) PGE2 agonist | -3.063
COC(=O)c1[nH]c2ccccc2c1NS(=O)(=O)c1ccc(F)c(C)c1 | percent of 1 uM PGE2 response; plus low (about EC15) PGE2 agonist | 1.143
COc1cc(C)c(C(=O)Oc2cc(C)c(C(=O)O)c(O)c2C)c(OC)c1C | percent of 1 uM PGE2 response; plus low (about EC15) PGE2 agonist | -4.467
Cc1ccc(-c2nn3c(C)nnc3s2)cc1NCc1c(F)cccc1Cl | percent of 1 uM PGE2 response; plus low (about EC15) PGE2 agonist | -5.627
C=CCSc1nc2sc(C)c(C)c2c(=O)n1CC=C | percent of 1 uM PGE2 response; plus low (about EC15) PGE2 agonist | -2.98
Cc1ccc(C(=O)c2coc3ccc(OCC(=O)O)cc23)cc1 | percent of 1 uM PGE2 response; plus low (about EC15) PGE2 agonist | 2.027
N#CC1=C(N)SC(N)=C(C#N)C1c1ccoc1 | percent of 1 uM PGE2 response; plus low (about EC15) PGE2 agonist | 51.69
Cc1ccc(C)n1-c1sc2c(c1C#N)CCCC2 | percent of 1 uM PGE2 response; plus low (about EC15) PGE2 agonist | -6.233
OC1(c2ccc(Cl)cc2)CN(c2ccccc2)C2=[N+]1CCS2 (stereo not given) | percent of 1 uM PGE2 response; plus low (about EC15) PGE2 agonist | 1.57
COc1ccc(-c2cc(C(F)(F)F)n3nc(C(=O)N(C)Cc4ccccc4)cc3n2)cc1OC | percent of 1 uM PGE2 response; plus low (about EC15) PGE2 agonist | -4.067
CCCCOC(=O)Sc1nc2ccccc2o1 | percent of 1 uM PGE2 response; plus low (about EC15) PGE2 agonist | -23.59
CCOc1ccc(Cl)cc1S(=O)(=O)n1cnc2cc(C)c(C)cc21 | percent of 1 uM PGE2 response; plus low (about EC15) PGE2 agonist | 3.997
Cc1ccc(-n2nc3c(=S)[nH]nc(C)c3c2C)cc1 | percent of 1 uM PGE2 response; plus low (about EC15) PGE2 agonist | 73.7
CCOC(=O)C(C)Sc1nc(-c2ccccc2)nc2ccccc12 (stereo not given) | percent of 1 uM PGE2 response; plus low (about EC15) PGE2 agonist | 2.477
CCOc1ccccc1NC(=O)c1ccccc1-c1nc(-c2ccccc2)no1 | percent of 1 uM PGE2 response; plus low (about EC15) PGE2 agonist | -9.447
C=CCSc1ncnc2sc(C)c(C)c12 | percent of 1 uM PGE2 response; plus low (about EC15) PGE2 agonist | 13.02
CCOC(=O)C1=C(C)OC(N)=C(C#N)C1c1cc(C)sc1C (stereo not given) | percent of 1 uM PGE2 response; plus low (about EC15) PGE2 agonist | -1.827
O=C(O)c1ccc(N2C(=O)/C(=C/C=C/c3ccccc3)SC2=S)cc1 | percent of 1 uM PGE2 response; plus low (about EC15) PGE2 agonist | -3.167
CCOC(=O)COc1cc(Br)c(/C=N/Nc2ccccc2)cc1OC | percent of 1 uM PGE2 response; plus low (about EC15) PGE2 agonist | 52.89
COc1ccc(C(=O)/C(=C/O)N=Nc2ccc(F)cc2)cc1 | percent of 1 uM PGE2 response; plus low (about EC15) PGE2 agonist | -9.143
c1ccc2c(-c3nc(C4CCCCC4)no3)cc(-c3ccncc3)nc2c1 | percent of 1 uM PGE2 response; plus low (about EC15) PGE2 agonist | -4.23
COc1ccc(/C=C(\C#N)C(N)=O)cc1OC | percent of 1 uM PGE2 response; plus low (about EC15) PGE2 agonist | 6.59
Cc1ccccc1Cn1c(Cc2ccccc2)nc2ccccc21 | percent of 1 uM PGE2 response; plus low (about EC15) PGE2 agonist | -4.377
O=c1[nH]c2ccc(Br)cc2c(-c2ccccc2)c1N1CCOCC1 | percent of 1 uM PGE2 response; plus low (about EC15) PGE2 agonist | 21.13
O=C(Nc1cccc(Cl)c1N1CCCC1)c1ccc(Br)o1 | percent of 1 uM PGE2 response; plus low (about EC15) PGE2 agonist | -14.42

Repeated from the top, 3 entries:

compound,condition,cAMP induction (%)
COc1ccc(N(Cc2ccccc2)S(=O)(=O)c2ccc(C)cc2)cc1,percent of 1 uM PGE2 response; plus low (about EC15) PGE2 agonist,1.52
Cc1c(NC(=S)NC(=O)c2ccc(-c3ccc(Cl)cc3)o2)cccc1C(=O)O,percent of 1 uM PGE2 response; plus low (about EC15) PGE2 agonist,-8.18
O=C1N2c3ccccc3CCc3cccc(c32)C1(O)C(F)(F)F (stereo not given),percent of 1 uM PGE2 response; plus low (about EC15) PGE2 agonist,4.903